Test results as given in publication PMC4920147.

Test system: RelA (p65) + NFκB p50
Assay: EMSA supershift
Details: TNFα-treated E11 nuclear extract; not stated; EMSA as in Basak et al., 2007; protein in an extract

CTGTGGGAAAGGGGTTTTCCCAGCAGTCAGG (double strand) [CD80 promoter probe]
binding result: binds

For at least one entry, the source does not settle the construct or the ends of the probe. Results from cells or extracts need not show a direct contact.
